Measured values from article PMC9860818.
Results are given in words; binding and its absence hold for the method and conditions named. In cells and extracts the contact can be indirect. Some entries that bind do so weakly or less than the wild type.

Protein sequences, listed by entry. Tags and fused reporters are not part of them. Lines headed by an entry give the natural chain unless they say otherwise; changes in a name come on top.
UniProt Q9QUM0: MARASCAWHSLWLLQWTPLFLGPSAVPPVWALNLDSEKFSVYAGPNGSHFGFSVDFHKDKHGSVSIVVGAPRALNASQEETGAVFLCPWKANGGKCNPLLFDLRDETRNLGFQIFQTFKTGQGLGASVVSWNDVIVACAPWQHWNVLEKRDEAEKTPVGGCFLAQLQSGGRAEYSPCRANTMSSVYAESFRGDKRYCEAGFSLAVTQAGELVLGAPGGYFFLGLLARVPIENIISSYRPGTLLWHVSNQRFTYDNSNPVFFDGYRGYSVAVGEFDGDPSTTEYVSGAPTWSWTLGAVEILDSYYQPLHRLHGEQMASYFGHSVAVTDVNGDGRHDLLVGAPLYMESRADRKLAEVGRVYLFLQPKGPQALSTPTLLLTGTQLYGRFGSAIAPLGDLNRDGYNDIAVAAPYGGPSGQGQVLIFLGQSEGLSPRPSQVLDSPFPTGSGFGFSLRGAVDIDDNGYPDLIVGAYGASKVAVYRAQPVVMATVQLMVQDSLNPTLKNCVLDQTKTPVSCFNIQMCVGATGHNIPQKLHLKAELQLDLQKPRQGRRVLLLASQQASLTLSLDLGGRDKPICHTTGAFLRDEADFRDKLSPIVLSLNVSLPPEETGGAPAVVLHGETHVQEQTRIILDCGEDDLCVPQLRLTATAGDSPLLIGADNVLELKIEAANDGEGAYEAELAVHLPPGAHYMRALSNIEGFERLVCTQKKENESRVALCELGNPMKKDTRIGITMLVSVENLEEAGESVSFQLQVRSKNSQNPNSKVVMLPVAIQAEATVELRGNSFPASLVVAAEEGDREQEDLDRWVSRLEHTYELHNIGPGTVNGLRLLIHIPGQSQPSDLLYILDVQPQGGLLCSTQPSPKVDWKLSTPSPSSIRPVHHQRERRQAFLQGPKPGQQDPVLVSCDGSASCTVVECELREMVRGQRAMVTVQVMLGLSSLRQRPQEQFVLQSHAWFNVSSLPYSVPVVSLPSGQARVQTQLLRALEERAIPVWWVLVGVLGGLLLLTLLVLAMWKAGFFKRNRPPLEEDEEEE
UniProt O54890: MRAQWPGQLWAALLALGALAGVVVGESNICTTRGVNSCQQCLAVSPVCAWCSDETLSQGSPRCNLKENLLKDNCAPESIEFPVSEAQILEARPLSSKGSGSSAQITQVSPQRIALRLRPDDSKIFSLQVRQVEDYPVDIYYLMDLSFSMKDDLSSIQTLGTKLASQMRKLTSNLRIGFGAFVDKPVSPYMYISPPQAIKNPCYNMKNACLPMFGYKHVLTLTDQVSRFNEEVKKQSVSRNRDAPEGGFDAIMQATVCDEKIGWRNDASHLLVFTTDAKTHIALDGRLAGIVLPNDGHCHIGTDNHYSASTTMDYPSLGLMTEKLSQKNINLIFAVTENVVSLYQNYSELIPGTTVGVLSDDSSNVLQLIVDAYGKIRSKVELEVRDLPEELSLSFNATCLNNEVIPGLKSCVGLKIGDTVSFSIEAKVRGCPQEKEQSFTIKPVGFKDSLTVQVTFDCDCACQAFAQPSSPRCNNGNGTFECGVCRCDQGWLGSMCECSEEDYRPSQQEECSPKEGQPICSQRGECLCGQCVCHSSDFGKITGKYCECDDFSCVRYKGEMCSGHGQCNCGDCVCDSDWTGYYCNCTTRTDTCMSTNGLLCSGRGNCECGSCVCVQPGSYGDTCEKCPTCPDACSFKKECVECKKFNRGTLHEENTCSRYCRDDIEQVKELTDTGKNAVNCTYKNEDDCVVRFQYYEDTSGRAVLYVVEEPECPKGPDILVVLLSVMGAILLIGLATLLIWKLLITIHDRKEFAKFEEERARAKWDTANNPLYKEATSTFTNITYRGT

Target: αIIbβ3 integrin (mouse (endogenous in platelets)) (UniProt Q9QUM0+O54890)
Experiment: cross-linking; washed mouse platelets (wild-type or SHIP1-deficient) in suspension with integrilin 40 µg/mL, resting or stimulated with thrombin 0.5 IU/mL at 37 °C, in some samples after Y27632 or blebbistatin; 0.25 mM Sulfo-EGS (linker 1.6 nm) for 15 min at room temperature; lysates immunoblotted for β3, multimers quantified

With “αIIbβ3 integrin (from UniProt Q9QUM0 32-1033; O54890 26-787) (complex)” the binding was “binds”.
